Test results: patent US20220288124A1
Results are given in words; binding and its absence hold for the method and conditions named. Binding calls can cover weak binding; strength is not graded here. For some of these results: Where a sequence is shown, tags or fusion partners need not be part of it.

Sequences of proteins named here, by UniProt entry; tags and fusion partners are left off. A change or cut given only in a name is not applied to a line headed by its entry.
UniProt P51654: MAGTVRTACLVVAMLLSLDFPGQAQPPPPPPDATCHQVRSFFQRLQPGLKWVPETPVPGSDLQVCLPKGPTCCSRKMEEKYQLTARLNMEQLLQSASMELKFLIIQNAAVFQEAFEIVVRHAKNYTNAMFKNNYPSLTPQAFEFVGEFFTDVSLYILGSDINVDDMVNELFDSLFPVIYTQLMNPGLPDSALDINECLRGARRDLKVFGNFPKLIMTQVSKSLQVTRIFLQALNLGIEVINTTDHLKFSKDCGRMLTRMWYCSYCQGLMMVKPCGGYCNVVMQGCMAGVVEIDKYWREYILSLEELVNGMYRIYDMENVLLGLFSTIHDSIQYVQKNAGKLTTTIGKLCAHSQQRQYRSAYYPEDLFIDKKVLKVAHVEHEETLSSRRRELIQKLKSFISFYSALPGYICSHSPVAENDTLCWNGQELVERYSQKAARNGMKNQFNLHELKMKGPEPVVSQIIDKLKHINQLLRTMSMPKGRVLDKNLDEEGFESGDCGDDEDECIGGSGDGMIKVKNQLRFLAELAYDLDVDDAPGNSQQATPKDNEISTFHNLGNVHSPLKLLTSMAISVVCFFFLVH

Key:
[1] = molecular target: hGPC3-N fragment (AA1-358) (human) (UniProt P51654); assay: intracellular staining of transfected 293T cells
[2] = molecular target: hGPC3-N fragment (AA1-358) (human) (UniProt P51654); assay: staining of transfected 293T cells (as summarised in Example II)
[3] = molecular target: hGPC3-N fragment (AA1-358) (human) (UniProt P51654); assay: intracellular staining of 293T cells transfected with hGPC3-N or hGPC3-C (summary table)
[4] = molecular target: hGPC3-N fragment (AA1-358) (human) (UniProt P51654); assay: flow cytometry, intracellular staining of 293 cells transfected with hGPC3-N; gate set on untransfected cells
[5] = molecular target: hGPC3-N fragment (AA1-358) (human) (UniProt P51654); assay: flow cytometry, intracellular staining of 293T cells transfected with hGPC3-N; gate set on untransfected cells
[6] = molecular target: hGPC3-N fragment (AA1-358) (human) (UniProt P51654); assay: western blot of transfected 293 cells
[7] = molecular target: hGPC3-N fragment (AA1-358) (human) (UniProt P51654); assay: western blot of transfected 293 cells (figure legend)
[8] = molecular target: hGPC3-N fragment (AA1-358) (human) (UniProt P51654); assay: Western blot of 293 cells transfected with hGPC3 N-fragment

Measured: binding

B1: mAb 6G11 (mouse hybridoma antibody) (antibody, V domains shown)
VH: QVQLQQPGSELVRPGASVKLSCKASGYTFTSCWMHWVKQRPGQGLEWIGNIYPGYGNTNYDEKFKNKATLTVDTSSSTAYMQLSGLTSEDSAVYYCTRGSYLYAMDYWGQGTSVTVSS
VL: DIQMNQSPSSLSASLGDTITITCHASQNINVWLSWYQQKPGNIPKLLIYKASNLHTGVPSRFSGSGSGTGFTLTISSLQPEDIATYYCQQGQSYPWTFGGGTKLEIKR
binds: [1] | [2] | [3] | [4] | [5]

B2: mAb 12D7 (mouse hybridoma antibody) (antibody, V domains shown)
VH: QVQLQQPGSELVRPGASVKLSCKASGYTFTSYWMHWVKQRLGQGLEWIGNIYPGSGSTNYDEKFKSKGTLTVDTSSSTAYMHLSSLTSEDSAVYYCTRGDYDWVFAYWGQGTLVTVSA
VL: DIVMTQSQKFMSTSVGDRVSVTCKASQNVGTNVAWYQQKPGQSPKALIYSASYRYSGVPDRFTGSGSGTDFTLTISNVQSEDLAEYFCQQYNSYPLTFGAGTKLELKR
binds: [1] | [2] | [3] | [4] | [5]

B3: recombinant mAb 6G11 (6G11 VL and VH fused to human IgG constant regions) (antibody, V domains shown)
VH: B1 VH
VL: B1 VL
binds: [6] | [7] | [8]

B4: recombinant mAb 12D7 (12D7 VL and VH fused to human IgG constant regions) (antibody, V domains shown)
VH: B2 VH
VL: B2 VL
binds: [6] | [7] | [8]
